Results from article PMC5700978.
Results are given in words; binding and its absence hold for the method and conditions named. In cells and extracts the contact can be indirect. Some binding calls cover weakened binding; strength is not graded here.

Amino acid sequences for entries named in this document (tags omitted).
UniProt Q60823: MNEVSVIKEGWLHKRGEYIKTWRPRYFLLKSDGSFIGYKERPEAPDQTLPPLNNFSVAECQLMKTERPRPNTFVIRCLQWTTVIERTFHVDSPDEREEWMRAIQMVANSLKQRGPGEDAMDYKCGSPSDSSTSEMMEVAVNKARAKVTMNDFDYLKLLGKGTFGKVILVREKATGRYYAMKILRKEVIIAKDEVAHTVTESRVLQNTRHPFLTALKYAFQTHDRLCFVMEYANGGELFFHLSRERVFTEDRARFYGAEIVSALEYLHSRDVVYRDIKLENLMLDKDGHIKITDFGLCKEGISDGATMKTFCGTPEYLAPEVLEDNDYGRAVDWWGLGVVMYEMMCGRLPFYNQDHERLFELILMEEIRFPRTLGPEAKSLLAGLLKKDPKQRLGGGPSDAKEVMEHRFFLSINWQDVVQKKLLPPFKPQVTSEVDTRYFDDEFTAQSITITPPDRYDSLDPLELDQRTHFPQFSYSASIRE
UniProt Q8CHE4: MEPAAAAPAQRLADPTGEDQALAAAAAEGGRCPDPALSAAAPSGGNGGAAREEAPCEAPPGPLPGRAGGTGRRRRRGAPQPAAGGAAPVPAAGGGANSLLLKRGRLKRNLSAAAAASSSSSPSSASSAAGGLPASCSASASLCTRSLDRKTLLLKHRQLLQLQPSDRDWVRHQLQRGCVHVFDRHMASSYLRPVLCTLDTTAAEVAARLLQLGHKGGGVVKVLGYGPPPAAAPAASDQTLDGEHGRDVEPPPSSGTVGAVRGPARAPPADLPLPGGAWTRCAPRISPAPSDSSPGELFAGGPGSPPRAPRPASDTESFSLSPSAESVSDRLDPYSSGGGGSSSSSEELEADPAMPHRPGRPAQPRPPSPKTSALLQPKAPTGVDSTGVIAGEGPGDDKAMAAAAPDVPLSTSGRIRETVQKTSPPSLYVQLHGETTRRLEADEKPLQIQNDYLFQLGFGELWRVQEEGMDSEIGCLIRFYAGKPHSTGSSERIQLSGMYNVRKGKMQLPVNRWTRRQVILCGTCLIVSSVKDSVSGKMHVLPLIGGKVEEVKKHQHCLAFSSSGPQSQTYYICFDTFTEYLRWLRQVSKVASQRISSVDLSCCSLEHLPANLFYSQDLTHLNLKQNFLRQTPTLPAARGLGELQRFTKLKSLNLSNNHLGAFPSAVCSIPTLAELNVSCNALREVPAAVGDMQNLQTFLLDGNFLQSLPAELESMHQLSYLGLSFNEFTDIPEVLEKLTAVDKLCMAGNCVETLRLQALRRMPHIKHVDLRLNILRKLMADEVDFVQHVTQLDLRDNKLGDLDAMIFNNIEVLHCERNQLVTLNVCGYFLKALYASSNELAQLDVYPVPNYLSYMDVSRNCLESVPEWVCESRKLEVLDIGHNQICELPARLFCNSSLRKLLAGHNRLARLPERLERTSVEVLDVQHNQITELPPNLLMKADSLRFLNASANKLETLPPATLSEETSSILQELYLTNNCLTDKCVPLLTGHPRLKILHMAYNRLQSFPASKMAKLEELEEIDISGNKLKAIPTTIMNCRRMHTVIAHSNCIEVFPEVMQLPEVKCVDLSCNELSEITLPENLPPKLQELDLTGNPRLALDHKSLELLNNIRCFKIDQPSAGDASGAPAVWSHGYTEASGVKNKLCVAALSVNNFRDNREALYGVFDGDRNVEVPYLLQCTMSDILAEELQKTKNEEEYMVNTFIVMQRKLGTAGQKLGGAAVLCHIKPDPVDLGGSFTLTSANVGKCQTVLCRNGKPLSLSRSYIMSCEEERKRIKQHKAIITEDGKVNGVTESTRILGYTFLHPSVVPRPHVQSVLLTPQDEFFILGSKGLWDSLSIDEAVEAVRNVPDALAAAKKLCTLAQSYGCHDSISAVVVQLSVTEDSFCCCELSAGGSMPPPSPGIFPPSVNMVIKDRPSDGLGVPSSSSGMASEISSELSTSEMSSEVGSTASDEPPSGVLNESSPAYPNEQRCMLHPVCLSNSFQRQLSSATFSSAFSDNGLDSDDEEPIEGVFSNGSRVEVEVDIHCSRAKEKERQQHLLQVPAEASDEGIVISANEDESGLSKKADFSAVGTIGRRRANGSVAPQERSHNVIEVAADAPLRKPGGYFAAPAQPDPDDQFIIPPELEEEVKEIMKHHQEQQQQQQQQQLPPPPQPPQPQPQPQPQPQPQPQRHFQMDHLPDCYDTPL

B1: AS160 (AKT substrate of 160 kDa) (protein, UniProt Q8BYJ6 1-1307)
chain: MESPSCIQDEPFPHPLEPEPSAPAQPGATKPGDKRFRLWYVGGSCLDRRTTLPMLPWLMAEIRRRSQKPDAGGCGAPAAREVILVLSAPFLRCVPAPGAGVGGGAGSGAVQPNTGVFIFEHKAQHISRFIHNSHDLTYFAYLIKAQPDDPESQMACHVFRATDPNQVPDVISSIRQLSKAAMKEDSKPSKDNEDAFYNSQKFEVLYCGRVIVTHKKAPSSLIDDCKDKFSLHEQQRLKLQGERGGDPGDEMGVLEVESPVSPDDSLPEKADGTVNSPRALPSLASLPALASQPALASSRVCFPERILEDCGFDEQQEFRSRCSSVTGVMQKKVHENNQKTQPRRRHASAPSHVQPSDSEKNRTMLFQVGRFEINLISPDTKSVVLEKNFKDISSCSQGIKHVDHFGFICRESPEPGLSQYICYVFQCANESLVDEVMLTLKQAFSTAAALQSAKTQIKLCETCPMHSLHKLCERIEGLYPPRAKLVIQRHLSSLTDNEQADIFERVQKMKPISDQEENELVILHLRQLCEAKQRTHVHIGEGPAIISNSTIPENVTSGGRFKLDVLKNKAKRSLTSSLENIFSRGANRMRGRLGSMDSFERANSLASEKDFSPGDSPPGTPPASPLSSAWHAFPEEDSDSPQFRRRAHTFSHPPSSSRRKLNLQDGKAHGLRSPLLRQSSSEQCSIVPSARRMYKESNSSCSLPSLHTSFSAPSFTAPSFLKSFYQNSGRLSPQYENEIRQDTASESSDGEGRKRTSSTCSNESLNAGGTPVTPRRVSWRQRIFLRVASPVNKSPSAMQQQKDGLDRTELLPLSPLSPTMEEEPLIIFLSGDEDTEKVEEKKKSKELKSLWKKAIHQQILLLRMEKENQKLEEARRDELQSRKVKLDYEEVGTCQKEILIAWDKKLLNCRTKIRCDMEDIHTSLKEGVPKSRRGEIWQFLALQYRLRHRLPNKHQPPDTSYKELLKQLTAQQHAILVDLGRTFPTHPYFSVQLGAGQLSLFNLLKAYSLLDKEVGYCQGISFVAGVLLLHMSEEQAFEMLKFLMYDLGFRKQYRPDMMSLQIQMYQLSRLLHDYHRELYNHLEENEISPSLYAAPWFLTLFASQFPLGFVARVFDIIFLQGTEVIFKVALSLLSSQEALIMECENFENIVEFLKSTLPDMNTTEMEKIITQVFEMDISKQLHAYEVEYHVLQDELLESSYACEDNESLEKLERANNQLKRQNMDLLEKLQVAHAKIQALESNLETLLTRETKMKALIRTLEQDKMAYQKTVEQIRKLLPADALANCELLLKDLTHPTNDKAKAGNKP
B2: phosphorylated AS160 (pAS160) (protein, UniProt Q8BYJ6 1-1307)
chain: B1 chain
modifications: phosphorylated (pAS160); the site detected in this experiment is not stated

Molecular target: serine/threonine protein kinase AKT2 (mouse (endogenous in skeletal muscle and eWAT)) (UniProt Q60823)
Experiment: co-IP; endogenous proteins; 500 ug lysate of soleus and EDL muscle of HFD-fed mice treated 30 days with vehicle or SAFit2; IP with anti-AKT2 or anti-FKBP51 overnight at 4 °C, protein G dynabeads, washed with ice-cold PBS; Western blot for FKBP51, (p)AKT2, (p)AS160, PHLPP1

Molecule	binding
PHLPP1 (from UniProt Q8CHE4 1-1687) (enzyme)	binds
B1	binds
B2	binds
